Test results: patent publication US20090203038A1
Results are given in words; binding and its absence hold for the method and conditions named. Some binding calls cover weakened binding; strength is not graded here.

Biological target: cBNP(1-32) coupled to azlactone beads (human)
Assay: KinExA, antibody passed over cBNP(1-32) coated azlactone beads, detected with Cy5: F(ab')2 goat anti-mouse IgG

B1: 3-631-436 WT mAb (antibody of hybridoma cell line 3-631-436, A.T.C.C. Accession No. PTA-6476) (antibody, V domains shown)
VH: QVQLQQPGAELVRPGASVKLSCKASGYTFTSYWMNWVKQRPEQGLEWIGRIDPYDSETHYNQKFKDKAILTVDKSSSTAFVQLTSLTSEDSAVYYCVSDGYWGAGTTCTVSS
VL: DVVMTQTPLTLSVTTGQPASISCKSSQSLLDSDGKTYLNWLFQRPGESPKLLIYVVSKLESGVPDRFTGSGSGTDFTLKISRVEAEDLGVYYCLQATHFPWTFGGGTKLEIKR
binding: binds
